Data as given in PubChem BioAssay.
The other results are listed elsewhere or left out. Shown are side measurements of this screen, not its main read-out; they come without a call.

Experiment: PubChem AID 1586
Conditions: yeast two-hybrid polyglutamine protein interaction, reporter readout; measured here: averaged growth delta OD

| SMILES | signal change (36 h minus 0 h) |
| --- | --- |
| O=C(Nc1ccc([N+](=O)[O-])cc1Cl)c1cc(Cl)ccc1O | 0.216 |
| Cc1ccc(C(=O)C(C)CN2CCCCC2)cc1 (stereo unspecified) | 0.138 |
| NC(=NCc1ccccc1)NC(=O)c1nc(Cl)c(N)nc1N | 0.577 |
| COc1cc2ccc(=O)oc2cc1O | 0.0577 |
| C=C1C(=O)OC2C1CCC1(C)CCC=C(C)C21 (stereo unspecified) | 0.171 |
| CO/N=C(/C(=O)N[C@@H]1C(=O)N2C(C(=O)O)=C(COC(C)=O)CS[C@H]12)c1csc(N)n1 | 0.0992 |
| O=C(c1ccccc1)c1ccc2n1CCC2C(=O)O (stereo unspecified) | 0.0568 |
| CC(NC(=O)C(NC(=O)OCc1ccccc1)C(C)C)C(=O)NC(CC(=O)O)C(=O)OC(F)F (stereo unspecified) | 0.0491 |
| CC(C)(C)CC(C)(C)c1ccc(OCCOCC[N+](C)(C)Cc2ccccc2)cc1 | 0.0293 |
| CCOc1ccc2c(c1)C(C)=CC(C)(C)N2 | 0.13 |
| CNC(=O)Oc1ccc2c(c1)[C@]1(C)CCN(C)[C@@H]1N2C | 0.0318 |
| CC(=O)Nc1ccc(S(=O)(=O)Nc2ccc([N+](=O)[O-])cc2)cc1 | 0.118 |
| O=C(O)c1cc2cc(Cc3cccnc3)ccc2o1 | 0.206 |
| CN(C)c1ccc(C(=C2C=CC(=[N+](C)C)C=C2)c2ccc(N(C)C)cc2)cc1 | -0.114 |
| COc1ccc(-c2coc3cc(O)cc(O)c3c2=O)cc1 | 0.358 |
| NC(=O)N/N=C/c1ccc([N+](=O)[O-])o1 | 0.00815 |
| CC(=O)c1c(O)c(C)c(O)c2c1OC1=CC(=O)C(C(C)=O)C(=O)C12C (stereo unspecified) | 0.289 |
| O=NN(CCCl)C(=O)NCCCl | 0.178 |
| CO[C@@]12[C@@H]3NC3CN1C1=C(C(=O)C(N)=C(C)C1=O)[C@@H]2COC(N)=O (stereo partly specified) | 0.484 |
| C[C@H]1c2cccc(O)c2C(O)=C2C(=O)[C@]3(O)C(O)=C(C(N)=O)C(=O)[C@@H](N(C)C)[C@@H]3[C@@H](O)[C@@H]21 | 0.134 |
| CC[C@@]1(O)C[C@H](OC2CC(N(C)C)C(OC3CC(O)C(OC4CCC(=O)C(C)O4)C(C)O3)C(C)O2)c2c(cc3c(c2O)C(=O)c2c(O)cccc2C3=O)[C@H]1C(=O)OC (stereo partly specified) | 0.034 |

Entries shown so far containing sulfur (2):

| SMILES | signal change (36 h minus 0 h) |
| --- | --- |
| CO/N=C(/C(=O)N[C@@H]1C(=O)N2C(C(=O)O)=C(COC(C)=O)CS[C@H]12)c1csc(N)n1 | 0.0992 |
| CC(=O)Nc1ccc(S(=O)(=O)Nc2ccc([N+](=O)[O-])cc2)cc1 | 0.118 |
